In test [1] the target is T1, FLAG-Msr1 (mouse) (mouse) (UniProt P30204).
T1 sequence: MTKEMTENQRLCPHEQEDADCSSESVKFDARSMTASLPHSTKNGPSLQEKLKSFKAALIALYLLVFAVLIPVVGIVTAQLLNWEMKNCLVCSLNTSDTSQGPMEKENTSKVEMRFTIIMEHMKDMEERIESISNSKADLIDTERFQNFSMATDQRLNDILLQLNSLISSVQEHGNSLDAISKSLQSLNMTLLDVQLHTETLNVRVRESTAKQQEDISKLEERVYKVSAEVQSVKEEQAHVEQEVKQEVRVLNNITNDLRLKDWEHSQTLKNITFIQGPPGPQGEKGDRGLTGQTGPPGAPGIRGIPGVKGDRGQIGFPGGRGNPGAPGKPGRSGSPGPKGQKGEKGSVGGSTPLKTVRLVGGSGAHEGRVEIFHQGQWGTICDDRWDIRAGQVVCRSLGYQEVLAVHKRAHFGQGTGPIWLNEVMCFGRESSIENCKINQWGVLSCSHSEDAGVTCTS
As to the kind of experiment: co-IP.

The target in test [2] is T2, FLAG-MSR1 (human), full-length (human) (UniProt P21757).
T2 sequence: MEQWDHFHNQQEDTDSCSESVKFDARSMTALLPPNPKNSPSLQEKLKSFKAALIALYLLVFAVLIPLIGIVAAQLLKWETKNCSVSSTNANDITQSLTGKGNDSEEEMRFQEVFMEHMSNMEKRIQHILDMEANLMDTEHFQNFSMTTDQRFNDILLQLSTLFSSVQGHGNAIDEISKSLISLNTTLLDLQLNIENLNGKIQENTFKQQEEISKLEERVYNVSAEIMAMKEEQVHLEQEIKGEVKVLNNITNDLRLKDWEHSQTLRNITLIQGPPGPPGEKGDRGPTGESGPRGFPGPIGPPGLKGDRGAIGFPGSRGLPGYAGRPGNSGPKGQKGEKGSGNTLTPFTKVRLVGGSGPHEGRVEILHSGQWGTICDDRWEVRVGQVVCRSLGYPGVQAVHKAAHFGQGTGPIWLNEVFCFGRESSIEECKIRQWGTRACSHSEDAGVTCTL
As to the kind of experiment: co-IP.

No constants are given. Whether binding was seen depends on the method and setting. In cells and extracts the contact can be indirect. Binding can be weak; no strength is given. Tags and fused reporters may be left off the sequences shown.

This is an account of results in publication doi:10.1101/2020.02.28.969832.

For the substance “Myc-nsP1 (CHIKV LR2006-OPY1) (Chikungunya virus, strain LR2006-OPY1)”, the binding entry in test [1] and in test [2] was “binds” throughout.
